About 210 (0.4%) of roughly 52,000 sequences were called active.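 The calls were made as follows: active = gene whose silencing raises cell survival under the drug, median off-target-corrected z-score across its silencing RNAs 2 or more; inactive = the rest.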 This is one part of the list.
assay: Resistance to Poly (ADP-Ribose) Polymerase inhibitor: Gene Identification via Genome-wide siRNA Screen; settings: mouse BRCA2 R2336H ES cells, olaparib, CellTiter-Glo viability; stronger effect = higher value
Procedure, shortened: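 Genome-wide siRNA screen (3 siRNAs/gene, 20 nM) in mouse ES cells carrying hypomorphic BRCA2 R2336H; olaparib 500 nM added 48 h post-transfection, CellTiter-Glo viability 72 h later. Normalized to plate-median negative control; MAD z-scores, gene median, seed-adjusted.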

Sequence | z-score
GGUGUUCUAAUUCUGAGGCTT against Tcstv1 | inactive: 0.0975
GGAAGAAUCUUUCUGAUGGTT against Pon3 | inactive: -1.32
GGUAGAGGAUGCGAUGCUGTT against Msi2h | inactive: -0.84
GGCAAUAAGUAAACACCUGTT against 0610008F07Rik | inactive: 0.447
GGAGAAAAAGCAACUUCAATT against Epsti1 | inactive: 0.263
GGUAAAUUCAACUGGAAGGTT against Lyar | inactive: 1.66
GGAAAACCAGGUGAACCUCTT against Gch1 | inactive: 0.307
GUUAACCAAAACAAAGGCUTT against Hist1h2ab | inactive: 1.09
GGACAUCCGACACUUUAACTT against Abcb9 | inactive: 0.245
GGACUUUGAGGAGAAGAAGTT against Maml1 | inactive: -0.508
GGAGUGUUGCCAGUUCCUATT against 4432405B04Rik | inactive: 0.443
CGAGCUUAUGCUGAAACCATT against 3830417A13Rik | inactive: -1.06
GGACUGAGAAUCUUCUGUATT against Kctd4 | inactive: -0.224
CCAAAUAUUGCCUAGCUGCTT against Qtrtd1 | inactive: -0.0841
GGAAAACCGGAACAACCAGTT against Kpna2 | inactive: -0.469
CCCGUAGGUAAUACAAAUATT against Foxd4 | inactive: 0.353
GCUUGCAUUCAUUUCAUACTT against Ezh2 | inactive: -0.803
CGCCUUAUGACAUCCGAUUTT against Dntt | inactive: 0.116
GGGAGCAACAGUGGUUGGATT against Solt | inactive: -2.1
CCGACGUAGAGAAAAGGGATT against Chchd1 | inactive: 0.424
CCGAUGCCAUCAAGUUUGATT against 1110033J19Rik | inactive: -1.46
GGAAAUGCGCCAUGAGUUGTT against 6330407J23Rik | inactive: 2.11
GAAGAGACCUUCACAAAGUTT against 2810036L13Rik | inactive: 0.252
CCUUUUCUAUAGAUUCUCGTT against V1rd13 | inactive: 0.22
GGAGAUUCAGAAGAUCCUCTT against 0610042E07Rik | inactive: 0.194
GGCCAGCUUACCAUUGAUCTT against Acadvl | inactive: -0.918

Copied from the list.
GGUGUUCUAAUUCUGAGGCTT against Tcstv1 | z-score: inactive: 0.0975
CCGAUGCCAUCAAGUUUGATT against 1110033J19Rik | z-score: inactive: -1.46

The listing continues:

Sequence | z-score
GGAAAUCGAAACUGUCUGCTT against 9530020D24Rik | inactive: 0.787
GCUGUGCAAGCAAUAUCUATT against Hnrpm | inactive: -0.164
GCAUGAACACUCUGACUGCTT against 2310003H01Rik | inactive: -1.3
GCUUGCACUGGACUCAACUTT against Pax4 | inactive: -0.42
GCAUCCUGAGUCCGUAUCCTT against Rbm11 | inactive: 0.109
GCAGCUCCUUUAUACCCACTT against 1810057P16Rik | inactive: -1.28
GCUCUGUGGCCGAAUUCAUTT against Olfr518 | inactive: 2.67
GGAGUUUAUGAAUUUGUUCTT against Etfdh | inactive: -0.595
GGAAAAAAGACAUAAGUCATT against V2r14 | inactive: 0.149
GUGUGAAGUGCAGACUGAGTT against AI481500 | inactive: -3.2
CCUCAAAUCAGCUAACUCATT against Mocs1 | inactive: -0.138
CCUUCUUAUUGCUUAACCCTT against Scd3 | inactive: -0.0307
GCACUGGUCACUAAUUAUATT against Fabp7 | inactive: 0.142
CCACUGAUGCUUCCUACUUTT against BC011209 | inactive: 2.21
GGAUUUUUACUGGUCAAACTT against AI586015 | inactive: 0.581
GAGCUUCUAAUUCACCCUATT against Abcc6 | inactive: 2.81
GGAUGAUGAAUUCACACACTT against Calr | inactive: 0.473
GCAGUCAUGGGUUCUUAAGTT against Gng3 | inactive: 0.466
GGAAACGGCAUAGUGCUAUTT against Mrgprb4 | inactive: 1.19
GCAAAUCUACCUCUUCGGGTT against Cdsn | inactive: -0.379
CCAUUUUUACCUACAUCCATT against Olfr452 | inactive: 1.81
GCAUGACAAGAGCUAGUUUTT against Olfr564 | inactive: 1.02
GCUUUUAGGCCUCCAAAAGTT against Lmnb2 | inactive: -1.22
GGAGGAAGUUGAAAAUGAATT against Myom2 | inactive: 1.33
CCAUUCUGAAAGUUUCAUCTT against Olfr350 | inactive: 0.434
CCUAGUUAGAGUAAUUAGGTT against Mras | inactive: 0.127

Sequence | z-score
GCGGGUGAAAUACACCAAGTT against Trim28 | inactive: -2.71
GGAAGAAAAGCAGGAAGCUTT against Hmgn3 | inactive: 0.92
GCCCGACAUCAUGAUUGUUTT against Gne | inactive: -0.876
GCCUCAAAUGCAUACAUACTT against Nr2e1 | inactive: -1.13
CCCAUUACCUGAUCAGUGGTT against AK129302 | inactive: 0.313
GGGAUAUGUUUCUUGUAGGTT against V1rc7 | inactive: 0.552
GGCACAGUUCCUCAGUAUGTT against Hspbap1 | inactive: -0.944
GCAAUGUGAGAAUUUUAACTT against MGC117568 | inactive: 1.68
GGUGAUGCCACUAGUGAAGTT against Scx | inactive: -0.595
CCCUAACUAAUGAUUCAGATT against Klri1 | inactive: 1.28
GGCAUCCAGACAAGUGAUGTT against C230075L19Rik | inactive: -2.03
GAUCCAUUUCACGUUGAUUTT against Gadd45g | inactive: 0.582
GCUGUUGGUUUCUACUCACTT against Adam21 | active: 1.43
GGCUAGCACUGUUUUUACCTT against 1700123O20Rik | inactive: 0.373
GCAAAUAGUAUUCCUUUGGTT against Akap8 | inactive: 0.603
GCAUGGUAAAAUGCUUAAGTT against Dlst | inactive: 2.4
GGGUUUAUUUGGUCAAGAUTT against 2610205H19Rik | inactive: 1.91
GCGGAUUCAGCUGAUGAUGTT against Sash1 | inactive: 0.424
GGCAUUUUUCUUCUCCAAATT against Clns1a | inactive: -0.934
GGCCCAGUUUCUGAGGAUCTT against B4galt2 | inactive: 0.501
GCUAGAUAAACUCUCUCAATT against Blr1 | inactive: 0.176
CCACUGAUAACUCGAUUUGTT against Nrp1 | inactive: -0.511
GGUCACCUUGUGAAGGCAGTT against A430005L14Rik | inactive: 1.28
GCAACAUUAUUUCAUCGACTT against Kctd15 | inactive: 1.02
AUGCAAGAGGAACGUAUCATT against Olfr1181 | inactive: 1.66
GGCAAGAAACACAAAAAGATT against 9630048M01Rik | inactive: 0.165

Sequence | z-score
GCAUUCGGCUGAGAAGAUGTT against Foxb2 | inactive: -1.8
GCGAUGGAAACUGAAAUGCTT against Jmjd2b | inactive: -0.0594
GGAUGUGACUCUUGACCUGTT against Depdc5 | inactive: 0.317
CCUCUUAAUGAAGGAAAGCTT against Npy | inactive: 0.554
GCCCGUGGUCUAAAUCUAUTT against Igtp | inactive: 0.596
GGAGCAACUAAUGAAGAAATT against 2810451A06Rik | inactive: -0.796
GGUUCUUGCUGAGAGCAUGTT against D930025H04 | inactive: 0.166
GGCUCUGAUAUUGAUACUATT against Cse1l | inactive: -3.03
GGCAUCCACACAGAACAAGTT against Zfp467 | inactive: 0.139
GGCCUUCACCAAAAGCAUCTT against Ncf2 | inactive: 1.25
GGAAUCCUUUCCUAAAUUGTT against 2700022J23Rik | inactive: 1.18
GGAAAGUAAAGUUUUCUCCTT against 2310075A12Rik | inactive: 0.426
UGAAAGCAUAAGCAAUACATT against Sr278 | inactive: -0.182
GGAUCCUAAGGUCAUGAUCTT against D1Wsu40e | inactive: -0.205
UCCAUACAGCAUCCAGUAATT against MGC107671 | inactive: -2.94
GGAAAGUGGAUGUCACCAGTT against Sh3gl2 | inactive: -1.44
CCUGUGUUAGGAGUUAUUCTT against 1110001C20Rik | inactive: 0.598
GGUCAAGGAGCCACAAUUGTT against Rsb30 | inactive: -2.69
CCAUGAAACGGGCCAUUUCTT against Cldn3 | inactive: -1.68
CCAUGUGGGUAAGUACAGCTT against 4932411N23Rik | inactive: -0.639
GGAAGAGGUAGUUGCUAGATT against Hemt1 | inactive: 0.506
GGUCUUUGAUCUUCUACCGTT against Thbs4 | inactive: -0.391
GCGUGAUUGACAACUGGUUTT against C330003B14Rik | inactive: 3.1
GGAACUGAAUGCGGAAUUCTT against Chi3l1 | inactive: -1.19
CCUUAGGAUAGAAACAAAGTT against 1110056A04Rik | inactive: 0.449
GGAGCACCAUUUCAGGAUATT against 4930463G05Rik | inactive: -0.0537

Already shown: an excerpt of the list.
Sequence | z-score
GGCCUUCACCAAAAGCAUCTT against Ncf2 | inactive: 1.25
GGAAUCCUUUCCUAAAUUGTT against 2700022J23Rik | inactive: 1.18
GGAAAGUAAAGUUUUCUCCTT against 2310075A12Rik | inactive: 0.426
UGAAAGCAUAAGCAAUACATT against Sr278 | inactive: -0.182
GGAUCCUAAGGUCAUGAUCTT against D1Wsu40e | inactive: -0.205
UCCAUACAGCAUCCAGUAATT against MGC107671 | inactive: -2.94
GGAAAGUGGAUGUCACCAGTT against Sh3gl2 | inactive: -1.44
